The text below walks through data of ChEMBL document CHEMBL1131212, “Synthesis and adrenergic activity of a new series of N-aryl dicyclopropyl ketone oxime ethers: SAR and stereochemical aspects” (J Med Chem, 1998).

For assay [1], the species on record is Cavia porcellus. The assay can be described thus: Chronotropic effect studied in right atria isolated from guinea pig and is expressed in pA2. The settings on record: read-out: pA2 (converted).
For assay [2], the species on record is Cavia porcellus. Put plainly: Ionotropic effect in electrically driven left atrial preparation (Atria isolated from guinea pig) and is expressed in pA2. The settings on record: Cardiac atrium, read-out: pA2 (converted).

For `CC(C)NCC(O)COc1cccc2ccccc12` (configuration not stated) [PROPRANOLOL], the Kb in the assay listed under Cavia porcellus [1] is 5.01 nM; in the assay filed under Cavia porcellus [2], 7.94 nM.
